Data taken from PubChem BioAssay AID977630, deposited by Broad Institute (2014).

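GFP signal from normal-ribosome E. coli grown alongside a humanized-ribosome RFP strain, measured on a plate reader after one day. Percent-style change in GFP activity at 50 µM; values more negative mean stronger inhibition. Active needs green reporter loss at least twice the red loss with limited overall growth inhibition; inconclusive means no clear call.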

Common to all entries: at 50 µM (top of the series). Every entry below has the call inconclusive. Only part of the assay is shown, chiefly results filed as inconclusive.

With COc1ccc(C(=O)c2c(C)oc3ccc(O)cc23)cc1 the assay gave activity change -34.56. C=CCn1c(SCc2n[nH]c(=S)n2-c2ccccc2)nnc1-c1ccccc1 gave activity change -30.4. For CCN(c1cccc2ccccc12)S(=O)(=O)c1ccc(Cl)nc1 the result was activity change -37.61. Result for CN(C)S(=O)(=O)c1ccc2oc(SCC(=O)NCC(F)(F)F)nc2c1 was activity change 27.86. COc1ccc(C2=NN(C(=O)c3cccnc3)C(c3ccccc3)C2)cc1 (stereo not given) gave activity change -7.934.

With CCCC(=O)Nc1cccc(C(=O)Nc2ccccc2OCC)c1 the assay gave activity change -12.33. With COc1cc(O)c2c(c1)/C=C/C[C@H](O)[C@H](O)C(=O)CCC[C@H](C)OC2=O the assay gave activity change -23.9. For O=C(NCc1ccccc1)c1cc(S(=O)(=O)N2CCCCC2)ccc1N1CCOCC1 the result was activity change -4.168. With CN(C)S(=O)(=O)N1CCN(c2ccccc2Cl)CC1 the assay gave activity change -7.922. With CCOC(=O)C12C(=O)OCC1C2c1ccccc1 (stereo not given) the assay gave activity change 33.75.

Result for O=C(Cc1cccc(NC(=O)C2CCN(C(=O)C3CCCCC3)CC2)c1)Nc1cccc(C(=O)N2CCCC2)c1 was activity change -29.7. For Cc1nc(C)c(-c2ccn(S(=O)(=O)c3ccc(Cl)cc3)n2)o1 the result was activity change -3.12. Cc1ccc(-c2cc[n+](Cc3ccccc3)cc2)cc1 gave activity change 4.751. O=[N+]([O-])c1ccc(O)c(CSc2nnnn2-c2ccccc2)c1 read activity change 8.371. Result for COc1ccc(-c2ccc3ccccc3n2)cc1OC was activity change -19.62.

Result for COc1ccc(C(=O)COC(=O)c2ccccc2O)c(OC)c1 was activity change -43.19. Cc1nc(Sc2ccccc2)c(C#N)c(C)c1[N+](=O)[O-] gave activity change -63.95. COc1ccc(Nc2nc(N)c([N+](=O)[O-])c(N3CCOCC3)n2)cc1 read activity change -17.2. Result for c1ccc(CN2CCN(C3CCCSc4ccccc43)CC2)cc1 (stereo not given) was activity change -22.28. For C[C@]12C(=O)N(c3ccc(F)cc3)C(=O)N1[C@@H]1c3ccccc3OC[C@@H]1[C@H]2c1ccccc1 the result was activity change -7.119.

For O=C(NOCc1ccccc1)c1coc(-c2ccccc2)n1 the result was activity change -35.38. CCc1nnc(NS(=O)(=O)c2ccc(NC(=O)c3cccc(Cl)c3)cc2)s1 read activity change -40.48. CC[n+]1c(C)cc2c(sc3ccccc32)c1C read activity change -3.899. Result for CN(Cc1ccccc1NS(=O)(=O)c1ccc(Cl)cc1)C1CCCCC1 was activity change 9.232. For COc1ccc(OC)c(NC(=O)COC(=O)CCNc2ccccc2OC)c1 the result was activity change -0.649.

CC(NC(=O)c1c(N)[nH]c(C(=O)c2ccccc2)c1-c1ccccc1Br)c1cccc2ccccc12 (stereo not given) gave activity change 13.01. With CC(C)Cc1nnc(NS(=O)(=O)c2ccccc2)s1 the assay gave activity change 8.237. For O=C(C[n+]1cc(-c2ccc(F)cc2)n2c1CCC2)c1cccs1 the result was activity change 61.62. With COc1ccc(-c2n[nH]c3c2CN(C(=O)c2ccc(F)cc2)CC3)cc1 the assay gave activity change -33.88.

Some entries from above, unchanged:

* CCc1nnc(NS(=O)(=O)c2ccc(NC(=O)c3cccc(Cl)c3)cc2)s1 : activity change -40.48
* O=C(C[n+]1cc(-c2ccc(F)cc2)n2c1CCC2)c1cccs1 : activity change 61.62